Converted amounts (≈) assume the structure as drawn.
What was measured:
C. albicans (SC5314) = assay: In vitro antifungal activity (MIC, broth dilution); assay type: cell-based; conditions: 24 and 48 h incubation (48 h stated for Fungizone and free AmB)
[1] = physiological pH; cited from earlier work

Q: What does the source list for `C[C@@H]1[C@H](O)[C@@H](C)/C=C/C=C/C=C/C=C/C=C/C=C/C=C/[C@H](O[C@@H]2O[C@H](C)[C@@H](O)[C@H](N)[C@@H]2O)C[C@@H]2O[C@](O)(C[C@@H](O)C[C@@H](O)[C@H](O)CC[C@@H](O)C[C@@H](O)CC(=O)O[C@H]1C)C[C@H](O)[C@H]2C(=O)O` [free AmB, amphotericin B]?
A: MIC (C. albicans (SC5314)): 1.75 µg/mL (≈ 1.89 µM); water solubility [1]: less than 1 mg/L
